Data taken from patent US20240101667A1, “METHODS FOR IDENTIFYING LILRB-BLOCKING ANTIBODIES” (THE BOARD OF REGENTS OF THE UNIVERSITY OF TEXAS SYSTEM, priority 2020, published 2024).
These are yes or no findings as the source states them, for the method shown. In cells and extracts the contact can be indirect. Some results given as binding are weak or reduced against the parent protein; the word gives no strength. Tags and fused reporters may be left off the sequences shown.

Protein sequences, listed by entry. Tags and fused reporters are not part of them. Residues count along the entry.
UniProt O75022, residues 24-631: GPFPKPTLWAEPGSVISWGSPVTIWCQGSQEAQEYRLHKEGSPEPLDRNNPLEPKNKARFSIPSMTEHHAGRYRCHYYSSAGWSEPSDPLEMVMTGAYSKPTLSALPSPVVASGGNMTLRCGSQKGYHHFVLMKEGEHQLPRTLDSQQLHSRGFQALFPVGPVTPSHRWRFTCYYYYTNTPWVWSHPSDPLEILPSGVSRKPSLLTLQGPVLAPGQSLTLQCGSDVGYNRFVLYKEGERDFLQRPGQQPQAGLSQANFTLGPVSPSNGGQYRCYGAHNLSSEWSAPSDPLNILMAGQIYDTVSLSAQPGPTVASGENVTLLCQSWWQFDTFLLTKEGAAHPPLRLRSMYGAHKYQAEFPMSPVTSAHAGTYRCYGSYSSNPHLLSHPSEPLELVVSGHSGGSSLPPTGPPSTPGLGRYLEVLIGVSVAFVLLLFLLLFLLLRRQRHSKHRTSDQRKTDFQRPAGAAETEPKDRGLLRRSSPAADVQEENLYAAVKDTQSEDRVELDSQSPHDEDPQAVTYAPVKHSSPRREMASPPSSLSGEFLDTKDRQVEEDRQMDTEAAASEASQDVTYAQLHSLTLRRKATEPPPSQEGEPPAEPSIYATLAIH

Biological target: LILRB3 (leukocyte immunoglobulin-like receptor subfamily B member 3), full length, on cells (human) (UniProt O75022)
Experiment: co-immunoprecipitation with human anti-LILRB3 antibody from primary M5 AML cell lysate

B1: TRAF2 (endogenous or expressed without a stated tag) (protein, human, UniProt Q12933 2-501, looked up)
chain: AAASVTPPGSLELLQPGFSKTLLGTKLEAKYLCSACRNVLRRPFQAQCGHRYCSFCLASILSSGPQNCAACVHEGIYEEGISILESSSAFPDNAARREVESLPAVCPSDGCTWKGTLKEYESCHEGRCPLMLTECPACKGLVRLGEKERHLEHECPERSLSCRHCRAPCCGADVKAHHEVCPKFPLTCDGCGKKKIPREKFQDHVKTCGKCRVPCRFHAIGCLETVEGEKQQEHEVQWLREHLAMLLSSVLEAKPLLGDQSHAGSELLQRCESLEKKTATFENIVCVLNREVERVAMTAEACSRQHRLDQDKIEALSSKVQQLERSIGLKDLAMADLEQKVLEMEASTYDGVFIWKISDFARKRQEAVAGRIPAIFSPAFYTSRYGYKMCLRIYLNGDGTGRGTHLSLFFVVMKGPNDALLRWPFNQKVTLMLLDQNNREHVIDAFRPDVTSSSFQRPVNDMNIASGCPLFCPVSKMEAKNSYVRDDAIFIKAIVDLTGL
For B1, the binding was “binds”.
